These results are taken from patent US12287324B2, “Companion diagnostics for NSAIDS and donepezil for treating specific subpopulations of patients suffering from Alzheimer's disease” (University of North Texas Health Science Center at Fort …, priority 2018, dated 2025).

For this assay, the system named is Individuals with a diagnosis of probable AD. Put plainly: ADCS anti-inflammatory clinical trial, 1-year exposure; MMSE and CDR-SB outcomes by treatment arm and proinflammatory endophenotype. In kind it is in vivo, human. An excerpt: Data source. Banked plasma samples from the Alzheimer's Disease Cooperative Studies (ADCS) anti-inflammatory clinical trial were used. […] This was a multicenter, randomized, double-blind, placebo-controlled parallel group trial with 1-year exposure to study medications across forty ambulatory treatment centers affiliated with the ADCS. […] Inclusion criteria were as follows: age 50 or older, MMSE score of 13-26 and diagnosis of probable AD. Stable use of cholinesterase inhibitors was allowed.
Statistical Analyses. Biomarker data were transformed using the Box-Cox transformation per previously published protocols, relevant portions incorporated herein by reference. Support vector machine (SVM) analyses were utilized to build the proteomic profiles simultaneously classifying all outcome groups in R per the inventors previously published methods, relevant portions incorporated herein by reference. SVM analyses are capable of simultaneously taking into account large volume data to generate an overall profile (e.g., over and under-expression of select proteins) that most accurately classifies multiple outcomes rather than only binary outcomes. MMSE change scores were utilized as the outcome variables for the study (i.e. MMSE screening−MMSE 12-month follow-up=MMSE change). Participants were classified into four groups based on change in MMSE scores over 12-months: responders (improved MMSE scores of >=1 point over 12 mo), stable (no change in MMSE over 12 months), non-responders (MMSE decline of 1-2 points over 12 mo) or adverse responders (MMSE decline of 3 or more points over 12 mo). To build inflammatory profiles of treatment response, group status (i.e. treatment response) was utilized as the outcome variable in SVM models with pre-randomization inflammatory proteins as the predictor variable. In order to determine if the proinflammatory profile of treatment response was drug-specific, analyses were conducted utilizing the total sample as well as within specific study treatment arms. […]

Where [1] appears, read: within treatment arm, no change in MMSE over 12 months.

As to `COc1ccc2cc([C@H](C)C(=O)O)ccc2c1` [Naproxen, naproxen], under “patients in the high end of the proinflammatory endophenotype”, the “treatment comparison of non-selective versus selective NSAIDs” value is on record as “superior treatment”. Moreover, under setting [1], the “participants who remained stable on MMSE (number)” value amounted to 4 and the “participants who remained stable on MMSE (percent of arm)” value is 8%.
